Measured values as given in PubChem BioAssay (EPA / NIEHS).
The shares of active, inactive and inconclusive entries below differ from those in the screen. Potencies beside an inconclusive call are fits to weak or partial responses and may not hold up. Calls of active or inactive are those of the source. The calls were made as follows: active = hit-call score of the fitted dose curve at least 0.9, where 1 is the maximum; inconclusive = response in the unintended direction; inactive = score below 0.9.

Sequences of proteins named here, by UniProt entry; tags and fusion partners are left off.
UniProt P28190, whole entry, looked up: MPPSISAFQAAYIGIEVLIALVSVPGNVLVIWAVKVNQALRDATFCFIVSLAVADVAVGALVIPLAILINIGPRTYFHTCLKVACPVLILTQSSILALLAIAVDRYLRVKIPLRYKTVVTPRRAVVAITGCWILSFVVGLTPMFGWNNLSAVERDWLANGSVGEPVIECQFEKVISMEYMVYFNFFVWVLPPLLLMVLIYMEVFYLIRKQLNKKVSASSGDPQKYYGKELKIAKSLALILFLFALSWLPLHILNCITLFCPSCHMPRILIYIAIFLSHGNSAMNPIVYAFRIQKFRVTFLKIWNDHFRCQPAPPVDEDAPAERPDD

Target: Adenosine receptor A1 (Bos taurus) (UniProt P28190)
Test: NVS_GPCR_bAdoR_NonSelective: NovaScreen (NVS) G Protein-Coupled Receptor Assay for bovine Adenosine Receptor (AdoR), Non-selective Binding (AID 2283244)
In short: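 Cell-free binding with membranes from bovine striatum: radioligand displaced by test chemical, read after 1 h by filtration and scintillation. Single-point 25 uM duplicate primary, 50 uM top concentration in follow-up curves, DMSO baseline.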

| SMILES | AC50 | outcome |
| --- | --- | --- |
| CO/C=C(/C(=O)OC)c1ccccc1COc1cccc(C(F)(F)F)n1 | inconclusive: 25 µM |  |
| O=[N+]([O-])C(Br)(CO)CO | active: 16.5 µM |  |
| CSc1nc(NC(C)C)nc(NC(C)C)n1 | active: 5.37 µM |  |
| CC(C)(C)c1cc(O)ccc1O |  | inactive |
| Oc1ccc(Cl)cc1Cc1ccccc1 | inconclusive: 25.2 µM |  |
| Cc1cc2c3c(c1)C(c1ccccc1)=N[C@@H](NC(=O)c1ccncc1)C(=O)N3CC2 | inconclusive: 1.14 µM |  |
| COc1cc(-c2ccc(N)c(OC)c2)ccc1N |  | inactive |
| CCC[CH2][Sn]([Cl])([CH2]CCC)[CH2]CCC | inconclusive: 25 µM |  |
| COP(=S)(OC)SCn1nnc2ccccc2c1=O | active: 8.1 µM |  |

Shown bar-delimited: two of the compounds above.
SMILES | AC50 | outcome
Oc1ccc(Cl)cc1Cc1ccccc1 | inconclusive: 25.2 µM | 
COc1cc(-c2ccc(N)c(OC)c2)ccc1N |  | inactive

Test system: not listed separately
Test: NVS_GPCR_bNPY_NonSelective: NovaScreen (NVS) G Protein-Coupled Receptor Assay for bovine Neuropeptide Y (NPY) Receptor, Non-selective Binding (AID 2283245)
In short: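 Displacement of radioligand from bovine hippocampal membrane receptors, read by filtration and scintillation counting after 1 hour. Concentration-response to a top of 50 uM followed a 25 uM duplicate primary screen. Loss of signal versus DMSO.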

| SMILES | outcome | AC50 |
| --- | --- | --- |
| CO/C=C(/C(=O)OC)c1ccccc1COc1cccc(C(F)(F)F)n1 | inactive |  |
| CC[C@H](C)[C@H]1O[C@]2(C=C[C@@H]1C)C[C@@H]1C[C@@H](C/C=C(\C)[C@@H](O[C@H]3C[C@H](OC)[C@@H](O[C@H]4C[C@H](OC)[C@@H](O)[C@H](C)O4)[C@H](C)O3)[C@@H](C)/C=C/C=C3\CO[C@@H]4[C@H](O)C(C)=C[C@@H](C(=O)O1)[C@]34O)O2 (tested in a mixture with another compound) | inactive |  |
| Nc1ccc(Cl)cc1 |  | inconclusive: 25.4 µM |
| CCC[CH2][Sn]([Cl])([CH2]CCC)[CH2]CCC |  | active: 3.07 µM |
| CCOc1cccc(C2(N3CCN(c4ccccc4)CC3)CCC(C)CC2)c1 (stereo not given) |  | inconclusive: 6.93 µM |
| CC#Cc1cc(C)nc(Nc2ccccc2)n1 |  | inconclusive: 25 µM |
